Measured data: PubChem BioAssay AID1259254 (NCATS, 2017)
Assay: 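Finding genes that stop cells copying their DNA twice in one cycle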 (primary screen). Cells: human HCT116 colorectal cancer cells. Reagent: single siRNA against human genes. Time to read-out: 3 days. Detection: 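Imaged Hoechst DNA stain sorts each cell into a cycle phase by DNA amount; per plate, G2 fraction set to 0% for non-targeting and 100% for GMNN siRNA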. Direction: G2 robust z-score: higher = more G2 cells, more excess DNA replication. Hit rule: 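An siRNA counts as active if its G2 robust z-score lies at least 5 MADs above the screen median; here such calls match roughly 38% of GMNN control or more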.
This is one part, drawn at random, of about 59,000 reagents tested. About 1,550 of all reagents (2.6%) count as active. 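G2 share is only a proxy for re-replication; each gene was hit by three separate siRNAs, and active genes were retested.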 A number with no mark means an inactive call. Reagents against one gene are numbered here. Further read-outs or replicates are left out here. The record does not give: the amount of reagent.

gene symbol	reagent no.	G2 robust z-score
PLEK2 (pleckstrin 2)	1	0.628
PLEK2 (pleckstrin 2)	2	2.24
PLEK2 (pleckstrin 2)	3	1.25
MYH15 (myosin heavy chain 15)	1	-0.795
MYH15 (myosin heavy chain 15)	2	-0.0365
MYH15 (myosin heavy chain 15)	3	6.04 (active)
TULP4 (TUB like protein 4)	1	-0.891
TULP4 (TUB like protein 4)	2	0.0461
TULP4 (TUB like protein 4)	3	-0.108
ERFE (erythroferrone)	1	-0.636
ERFE (erythroferrone)	2	-0.847
ERFE (erythroferrone)	3	-0.313
ZMYND8 (zinc finger MYND-type containing 8)	1	-0.316
ZMYND8 (zinc finger MYND-type containing 8)	2	0.865
ZMYND8 (zinc finger MYND-type containing 8)	3	-0.221
PINK1 (PTEN induced kinase 1)	1	0.56
PINK1 (PTEN induced kinase 1)	2	-1
PINK1 (PTEN induced kinase 1)	3	-1.03
SLC6A18	1	1.14
SLC6A18	2	0.651
SLC6A18	3	-0.609
CALB2 (calbindin 2)	1	0.652
CALB2 (calbindin 2)	2	-0.104
CALB2 (calbindin 2)	3	-0.7
POLI (DNA polymerase iota)	1	1.2
POLI (DNA polymerase iota)	2	-0.717
POLI (DNA polymerase iota)	3	-0.341
TRAPPC1 (trafficking protein particle complex subunit 1)	1	-0.971
TRAPPC1 (trafficking protein particle complex subunit 1)	2	-0.323
TRAPPC1 (trafficking protein particle complex subunit 1)	3	-0.558
PRPF18 (pre-mRNA processing factor 18)	1	0.36
PRPF18 (pre-mRNA processing factor 18)	2	0.217
PRPF18 (pre-mRNA processing factor 18)	3	-0.171
ATP8A2 (ATPase phospholipid transporting 8A2)	1	-0.499
ATP8A2 (ATPase phospholipid transporting 8A2)	2	2.69
ATP8A2 (ATPase phospholipid transporting 8A2)	3	-0.423
ZDHHC1 (zDHHC palmitoyltransferase 1)	1	-0.378
ZDHHC1 (zDHHC palmitoyltransferase 1)	2	0.138
ZDHHC1 (zDHHC palmitoyltransferase 1)	3	2.24
DNAJB6 (DnaJ heat shock protein family (Hsp40) member B6)	1	-0.165
DNAJB6 (DnaJ heat shock protein family (Hsp40) member B6)	2	0.942
DNAJB6 (DnaJ heat shock protein family (Hsp40) member B6)	3	-0.705
COX16 (cytochrome c oxidase assembly factor COX16)	1	-0.197
COX16 (cytochrome c oxidase assembly factor COX16)	2	-0.0184
COX16 (cytochrome c oxidase assembly factor COX16)	3	2.38
MAML3 (mastermind like transcriptional coactivator 3)	1	5.74 (active)
MAML3 (mastermind like transcriptional coactivator 3)	2	-0.823
MAML3 (mastermind like transcriptional coactivator 3)	3	1.35
